Patent publication US20230279141A1 (MINERVA BIOTECHNOLOGIES, published 2023)
Results are given in words; binding and its absence hold for the method and conditions named. Some entries that bind do so weakly or less than the wild type.

Amino acid sequences for entries named in this document (tags omitted). A change or cut given only in a name is not applied to a line headed by its entry. Residues count along the entry.
UniProt P15941, residues 1110-1255: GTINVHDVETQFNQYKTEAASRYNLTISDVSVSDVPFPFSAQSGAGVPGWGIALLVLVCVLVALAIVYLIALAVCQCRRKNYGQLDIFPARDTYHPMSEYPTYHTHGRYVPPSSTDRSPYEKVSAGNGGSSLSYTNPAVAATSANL
UniProt Q9Y5B8: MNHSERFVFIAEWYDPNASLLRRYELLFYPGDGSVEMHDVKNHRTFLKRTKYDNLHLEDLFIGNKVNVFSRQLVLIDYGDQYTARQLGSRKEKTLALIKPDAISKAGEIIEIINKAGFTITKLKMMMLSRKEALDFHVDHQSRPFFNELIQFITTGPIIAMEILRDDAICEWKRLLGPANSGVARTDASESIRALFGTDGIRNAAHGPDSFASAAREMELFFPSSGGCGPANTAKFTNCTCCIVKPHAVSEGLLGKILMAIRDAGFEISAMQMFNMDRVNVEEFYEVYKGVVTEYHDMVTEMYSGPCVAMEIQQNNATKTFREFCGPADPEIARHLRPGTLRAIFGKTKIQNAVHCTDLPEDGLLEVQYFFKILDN

Tests used:
[1] = molecular target: MUC1* growth factor receptor (human) (UniProt P15941); test: pull-down assays, ELISAs and nanoparticle binding experiments
[2] = molecular target: MUC1* growth factor receptor (human) (UniProt P15941); test: ELISA of FIG. 1 is cited

## recombinant human NME7-AB (from UniProt Q9Y5B8 92-376) (ligand)
[1]
  binding: binds
[2]
  binding: binds
